Experimental findings from article PMC8071052 are described below.

Assay [1] concerns the target T1, ADA2b (alteration/deficiency in activation-2b) transcriptional adaptor, Arabidopsis thaliana (Arabidopsis thaliana) (UniProt Q9ATB4).
T1 sequence: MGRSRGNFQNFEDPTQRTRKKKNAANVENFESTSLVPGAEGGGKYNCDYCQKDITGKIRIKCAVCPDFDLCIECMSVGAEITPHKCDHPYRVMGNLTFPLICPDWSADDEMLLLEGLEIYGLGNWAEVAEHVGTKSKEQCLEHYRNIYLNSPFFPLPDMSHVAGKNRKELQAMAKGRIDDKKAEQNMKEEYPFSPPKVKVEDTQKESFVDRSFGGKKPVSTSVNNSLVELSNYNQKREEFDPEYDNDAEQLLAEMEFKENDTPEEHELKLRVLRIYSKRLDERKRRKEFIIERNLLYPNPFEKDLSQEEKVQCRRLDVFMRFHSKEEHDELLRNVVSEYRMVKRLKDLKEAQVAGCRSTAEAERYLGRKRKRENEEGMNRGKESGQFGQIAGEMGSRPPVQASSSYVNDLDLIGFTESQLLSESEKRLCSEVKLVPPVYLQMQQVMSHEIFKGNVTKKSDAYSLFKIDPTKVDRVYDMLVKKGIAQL
Description: two-hybrid; Matchmaker Gold System; baits in pGBKT7 in yeast AH109, preys in pGADT7 in Y187; tenfold serial dilutions plated on high stringency media, 5 days at 30 °C; empty pGBKT7 as negative control.

The target in assay [2] is T2, SGF11, Arabidopsis thaliana (Arabidopsis thaliana) (UniProt Q94BV2).
T2 sequence: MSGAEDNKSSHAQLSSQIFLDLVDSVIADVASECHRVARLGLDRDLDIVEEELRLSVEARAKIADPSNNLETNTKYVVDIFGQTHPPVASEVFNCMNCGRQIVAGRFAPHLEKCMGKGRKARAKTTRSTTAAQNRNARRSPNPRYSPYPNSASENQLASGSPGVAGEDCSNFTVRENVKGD
The assay is described as above.

These are yes or no findings as the source states them, for the method shown.

As for “ADA3a (alteration/deficiency in activation-3a), Arabidopsis thaliana (from UniProt O64572)”, the binding entry in assay [1] and in assay [2] was “no binding” in each case.
